Literature values as cited in patent US20100234358A1, “NERAMEXANE FOR THE TREATMENT OF NYSTAGMUS” (MERZ PHARMA GMBH & CO. KGAA, priority 2007, published 2010).
Some results were stated once for a whole list of compounds, not compound by compound.

System: acquired nystagmus
Details: estimate of the majority of physicians; cited from earlier work

## NCC(CC(=O)O)c1ccc(Cl)cc1 (stereo not shown) [baclofen]
  average treatment effect, improvement in visual acuity: ≤ 25%
